Measured values as given in paper PMC6073210, “Adducin‐1 is essential for spindle pole integrity through its interaction with TPX2” (EMBO Reports, 2018).
These are yes or no findings as the source states them, for the method shown. In cells and extracts the contact can be indirect. Some entries that bind do so weakly or less than the wild type. One block for each molecule: values may come before it.

The chains behind the UniProt entries cited, without tags or fusion partners.
UniProt P35611: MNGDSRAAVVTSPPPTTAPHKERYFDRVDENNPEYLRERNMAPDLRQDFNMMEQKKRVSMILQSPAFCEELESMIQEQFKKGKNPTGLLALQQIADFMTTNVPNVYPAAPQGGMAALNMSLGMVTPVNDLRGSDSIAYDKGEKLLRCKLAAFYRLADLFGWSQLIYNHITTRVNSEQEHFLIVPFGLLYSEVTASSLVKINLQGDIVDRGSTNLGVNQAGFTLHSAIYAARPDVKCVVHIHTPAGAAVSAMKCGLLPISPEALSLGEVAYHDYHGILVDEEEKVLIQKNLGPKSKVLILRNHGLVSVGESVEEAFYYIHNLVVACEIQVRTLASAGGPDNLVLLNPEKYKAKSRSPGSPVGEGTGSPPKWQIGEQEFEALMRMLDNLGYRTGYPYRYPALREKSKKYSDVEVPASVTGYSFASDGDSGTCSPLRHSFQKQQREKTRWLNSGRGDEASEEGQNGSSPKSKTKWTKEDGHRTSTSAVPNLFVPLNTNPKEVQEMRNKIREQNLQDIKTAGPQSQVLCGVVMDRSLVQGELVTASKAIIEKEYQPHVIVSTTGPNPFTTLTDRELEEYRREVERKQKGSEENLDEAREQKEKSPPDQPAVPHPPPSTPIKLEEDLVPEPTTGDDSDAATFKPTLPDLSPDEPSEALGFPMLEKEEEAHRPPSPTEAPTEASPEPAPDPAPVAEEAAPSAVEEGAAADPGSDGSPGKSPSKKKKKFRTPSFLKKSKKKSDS

Columns and labels:
[1] = molecular target: FLAG-ADD1 WT (adducin-1), transiently expressed in HEK293 cells (UniProt P35611); test: co-IP; FLAG-ADD1 or FLAG-AurA transiently co-expressed with HA-TPX2 or its mutants in HEK293 cells; immunoprecipitation with anti-FLAG, blot with anti-FLAG or anti-HA
[2] = molecular target: FLAG-ADD1 WT (adducin-1), expressed in HeLa cells (UniProt P35611); test: co-IP; as a1, but HeLa cells left asynchronized (interphase)
[3] = molecular target: FLAG-ADD1 WT (adducin-1), expressed in HeLa cells (UniProt P35611); test: co-IP; HeLa cells expressing FLAG-ADD1 WT or S726A, synchronized at the M phase (nocodazole); lysates in TBS buffer (1% Triton X-100, 50 mM Tris-HCl pH 7.4, 150 mM NaCl) incubated with anti-FLAG M2 affinity resins for 16 h, eluted with FLAG peptide, blotted with anti-FLAG and anti-TPX2

binding [1]: no binding
Molecule: HA-TPX2 Δ236–370 deletion mutant, transiently expressed in HEK293 cells (from UniProt Q9ULW0 1-747)

binding [1]: binds
Molecule: HA-tagged TPX2 WT, transiently expressed in HEK293 cells (from UniProt Q9ULW0 1-747)

binding [3]: binds
B1: TPX2, endogenous in HeLa cells (natural protein, human (endogenous in HeLa), UniProt Q9ULW0 1-747, looked up)
chain: MSQVKSSYSYDAPSDFINFSSLDDEGDTQNIDSWFEEKANLENKLLGKNGTGGLFQGKTPLRKANLQQAIVTPLKPVDNTYYKEAEKENLVEQSIPSNACSSLEVEAAISRKTPAQPQRRSLRLSAQKDLEQKEKHHVKMKAKRCATPVIIDEILPSKKMKVSNNKKKPEEEGSAHQDTAEKNASSPEKAKGRHTVPCMPPAKQKFLKSTEEQELEKSMKMQQEVVEMRKKNEEFKKLALAGIGQPVKKSVSQVTKSVDFHFRTDERIKQHPKNQEEYKEVNFTSELRKHPSSPARVTKGCTIVKPFNLSQGKKRTFDETVSTYVPLAQQVEDFHKRTPNRYHLRSKKDDINLLPSKSSVTKICRDPQTPVLQTKHRARAVTCKSTAELEAEELEKLQQYKFKARELDPRILEGGPILPKKPPVKPPTEPIGFDLEIEKRIQERESKKKTEDEHFEFHSRPCPTKILEDVVGVPEKKVLPITVPKSPAFALKNRIRMPTKEDEEEDEPVVIKAQPVPHYGVPFKPQIPEARTVEICPFSFDSRDKERQLQKEKKIKELQKGEVPKFKALPLPHFDTINLPEKKVKNVTQIEPFCLETDRRGALKAQTWKHQLEEELRQQKEAACFKARPNTVISQEPFVPKKEKKSVAEGLSGSLVQEPFQLATEKRAKERQELEKRMAEVEAQKAQQLEEARLQEEEQKKEELARLRRELVHKANPIRKYQGLEIKSSDQPLTVPVSPKFSTRFHC
notes: TPX2, endogenous protein of HeLa cells detected with anti-TPX2; source: endogenous, HeLa whole-cell lysate
binding [2]: no binding (condition: asynchronized (interphase) cells)
